Measured values reported in PMC10557143, “Promoter R-Loops Recruit U2AF1 to Modulate Its Phase Separation and RNA Splicing”.

Key:
U2AF1 (human) [1] = target: T1, U2AF1 (human) (UniProt Q01081); experiment: EMSA; conditions: K+ buffer, Kd very similar to anisotropy, recombinant protein, protein details: His6 (pET30a), label: 5' TAMRA
T1 sequence (looked up, limits assumed): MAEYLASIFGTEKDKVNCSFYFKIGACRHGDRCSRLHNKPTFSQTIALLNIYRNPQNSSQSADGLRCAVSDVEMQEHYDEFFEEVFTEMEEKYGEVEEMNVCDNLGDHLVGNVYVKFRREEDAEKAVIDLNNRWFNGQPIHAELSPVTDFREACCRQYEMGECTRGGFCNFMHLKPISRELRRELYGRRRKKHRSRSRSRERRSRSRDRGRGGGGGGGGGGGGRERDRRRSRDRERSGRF

U2AF1-ZF2 (human) = target: T2, U2AF1-ZF2 (human) (UniProt Q01081); experiment: fluorescence anisotropy; conditions: Anisotropy: 10 nM probe, 10 mM Tris-HCl pH 7.5, 1 mM EDTA, 100 mM KCl, 0.1 mM DTT, 10 ug/mL BSA, 30 min on ice; recombinant protein; protein details: His6 (pET30a); label: 5' Cy3 on RNA strand; DNA:RNA hybrid
T2 sequence (looked up, limits assumed): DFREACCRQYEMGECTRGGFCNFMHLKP

U2AF1-ZF1 (human) = target: T3, U2AF1-ZF1 (human) (UniProt Q01081); experiment: fluorescence anisotropy; conditions: Anisotropy: 10 nM probe, 10 mM Tris-HCl pH 7.5, 1 mM EDTA, 100 mM KCl, 0.1 mM DTT, 10 ug/mL BSA, 30 min on ice; recombinant protein; protein details: His6 (pET30a); label: 5' Cy3 on RNA strand; DNA:RNA hybrid
T3 sequence (looked up, limits assumed): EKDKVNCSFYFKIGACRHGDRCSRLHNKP

U2AF1 (human) [2] = target: T1, U2AF1 (human); experiment: fluorescence anisotropy; conditions: Anisotropy: 10 nM probe, 10 mM Tris-HCl pH 7.5, 1 mM EDTA, 100 mM KCl, 0.1 mM DTT, 10 ug/mL BSA, 30 min on ice; recombinant protein; protein details: His6 (pET30a); label: 5' Cy3 on non-templated strand
U2AF1 (human) [3] = target: T1, U2AF1 (human); experiment: phase separation, fluorescence microscopy; conditions: recombinant protein, protein details: His6 (pET30a), label: 5' Cy3 on RNA strand

AGGGAGGGCGCTGGGAGGAGGG [cKIT_G4]: binds (U2AF1 (human) [1]; folded or branched DNA).

AGGGAGGGCTCTGTGAGGAGGG [cKIT_M4]: binds (U2AF1 (human) [1]; single-stranded DNA).

“GCGAGGGGCGGCCGGAGAGC (double strand) [RNA/DNA hybrid]”: binds more weakly (U2AF1-ZF2 (human)); binds more weakly (U2AF1-ZF1 (human)).

“GCGAGGGGCGGCCGGAGAGC (double strand) [dsDNA]”: binds more weakly (U2AF1 (human) [2]).

“GCGAGGGGCGGCCGGAGAGC / CCGCTCCGGCAGCTCAGGCCCTGGCGCTCTCCGGCCGCCCCTCGCCCGCCCGGGCTCCTCCTCCTGTGCC / GGCACAGGAGGAGGAGTTTTTTCAGGGAGGGCGCTGGGAGGAGGGCATTTTTTGAGCTGCCGGAGCGG [cKIT G4-R-loop]”: binds (U2AF1 (human) [3]; enhances droplets more than M4-R-loop).

“GCGAGGGGCGGCCGGAGAGC / CCGCTCCGGCAGCTCAGGCCCTGGCGCTCTCCGGCCGCCCCTCGCCCGCCCGGGCTCCTCCTCCTGTGCC / GGCACAGGAGGAGGAGTTTTTTCAGGGAGGGCTCTGTGAGGAGGGCATTTTTTGAGCTGCCGGAGCGG [cKIT M4-R-loop]”: binds (U2AF1 (human) [3]; fewer foci than G4-R-loop).

Construct, isoform or probe ends are uncertain for at least one entry. For some of these results: The comparison behind a weaker result is the experiment's own reference, which may not be listed here. Tags and fusion partners may be left off the protein sequences shown. For some of these results: At least one verdict was read from the data and is not stated in words by the source.
